From patent US8728754B1, “Use of proteins isolated from Pseudomonas to control molluscs” (priority 2013, dated 2014)
At least one compound was matched to its structure with a doubt left.

System: CL145A (ATCC 55799)
Test: Antibiotic resistance profile (antibiotic discs on Mueller-Hinton Agar)
Conditions: for Suppresses growth of CL145A: 25° C., 72 hours; for CL145A resistant or sensitive to the antibiotic: antibiotic disc, 72 hours incubation

SMILES	Suppresses growth of CL145A (30 μg disc)	CL145A resistant or sensitive to the antibiotic	Suppresses growth of CL145A (10 μg disc)
CN(C)[C@@H]1C(O)=C(C(N)=O)C(=O)[C@@]2(O)C(O)=C3C(=O)c4c(O)cccc4[C@@](C)(O)[C@H]3[C@H](O)[C@@H]12 [Oxytetracycline]	Yes	sensitive	
CN(C)[C@@H]1C(O)=C(C(N)=O)C(=O)[C@@]2(O)C(O)=C3C(=O)c4c(O)cccc4[C@@](C)(O)[C@H]3C[C@@H]12 [Tetracycline]	No	resistant	
C[C@@H](O)[C@H]1C(=O)N2C(C(=O)O)=C(SCCN=CN)C[C@H]12 [Imipenem]		sensitive	Yes
NC[C@H]1O[C@H](O[C@H]2[C@H](O)[C@@H](O[C@H]3O[C@H](CO)[C@@H](O)[C@H](N)[C@H]3O)[C@H](N)C[C@@H]2N)[C@H](O)[C@@H](O)[C@@H]1O [Kanamycin]	Yes	sensitive	
